Here are results for four molecules from paper PMC5415356.

Protein sequences, listed by entry. Tags and fused reporters are not part of them.
UniProt P46937: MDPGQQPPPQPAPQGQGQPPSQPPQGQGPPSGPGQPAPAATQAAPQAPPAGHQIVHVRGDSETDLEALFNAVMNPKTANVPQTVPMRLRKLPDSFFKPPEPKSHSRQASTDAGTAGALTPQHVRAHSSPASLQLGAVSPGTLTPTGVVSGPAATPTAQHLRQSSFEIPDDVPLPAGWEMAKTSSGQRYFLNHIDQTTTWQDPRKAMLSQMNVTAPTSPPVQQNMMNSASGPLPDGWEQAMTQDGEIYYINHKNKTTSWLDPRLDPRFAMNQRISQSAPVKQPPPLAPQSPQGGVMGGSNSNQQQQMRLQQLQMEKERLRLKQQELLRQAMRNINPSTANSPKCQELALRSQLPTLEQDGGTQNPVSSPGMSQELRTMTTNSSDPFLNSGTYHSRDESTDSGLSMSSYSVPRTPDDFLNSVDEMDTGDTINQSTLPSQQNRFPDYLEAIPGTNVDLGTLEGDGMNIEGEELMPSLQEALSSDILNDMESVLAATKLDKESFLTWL
UniProt P35240: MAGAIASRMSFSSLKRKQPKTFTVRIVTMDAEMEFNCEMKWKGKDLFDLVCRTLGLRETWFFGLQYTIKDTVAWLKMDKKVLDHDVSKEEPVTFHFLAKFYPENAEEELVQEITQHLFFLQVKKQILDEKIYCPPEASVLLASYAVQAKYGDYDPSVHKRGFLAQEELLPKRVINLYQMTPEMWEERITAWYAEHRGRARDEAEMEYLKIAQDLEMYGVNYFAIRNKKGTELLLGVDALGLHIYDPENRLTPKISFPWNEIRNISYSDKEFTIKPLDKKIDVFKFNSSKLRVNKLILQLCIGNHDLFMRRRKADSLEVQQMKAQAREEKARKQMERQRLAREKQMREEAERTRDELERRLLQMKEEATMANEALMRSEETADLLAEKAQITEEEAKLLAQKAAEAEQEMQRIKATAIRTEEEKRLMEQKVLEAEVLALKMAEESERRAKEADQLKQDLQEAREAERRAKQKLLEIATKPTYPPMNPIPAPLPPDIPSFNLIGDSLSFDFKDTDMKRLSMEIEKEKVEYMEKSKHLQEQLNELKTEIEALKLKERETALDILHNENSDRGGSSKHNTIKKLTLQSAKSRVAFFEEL
UniProt Q8NI35: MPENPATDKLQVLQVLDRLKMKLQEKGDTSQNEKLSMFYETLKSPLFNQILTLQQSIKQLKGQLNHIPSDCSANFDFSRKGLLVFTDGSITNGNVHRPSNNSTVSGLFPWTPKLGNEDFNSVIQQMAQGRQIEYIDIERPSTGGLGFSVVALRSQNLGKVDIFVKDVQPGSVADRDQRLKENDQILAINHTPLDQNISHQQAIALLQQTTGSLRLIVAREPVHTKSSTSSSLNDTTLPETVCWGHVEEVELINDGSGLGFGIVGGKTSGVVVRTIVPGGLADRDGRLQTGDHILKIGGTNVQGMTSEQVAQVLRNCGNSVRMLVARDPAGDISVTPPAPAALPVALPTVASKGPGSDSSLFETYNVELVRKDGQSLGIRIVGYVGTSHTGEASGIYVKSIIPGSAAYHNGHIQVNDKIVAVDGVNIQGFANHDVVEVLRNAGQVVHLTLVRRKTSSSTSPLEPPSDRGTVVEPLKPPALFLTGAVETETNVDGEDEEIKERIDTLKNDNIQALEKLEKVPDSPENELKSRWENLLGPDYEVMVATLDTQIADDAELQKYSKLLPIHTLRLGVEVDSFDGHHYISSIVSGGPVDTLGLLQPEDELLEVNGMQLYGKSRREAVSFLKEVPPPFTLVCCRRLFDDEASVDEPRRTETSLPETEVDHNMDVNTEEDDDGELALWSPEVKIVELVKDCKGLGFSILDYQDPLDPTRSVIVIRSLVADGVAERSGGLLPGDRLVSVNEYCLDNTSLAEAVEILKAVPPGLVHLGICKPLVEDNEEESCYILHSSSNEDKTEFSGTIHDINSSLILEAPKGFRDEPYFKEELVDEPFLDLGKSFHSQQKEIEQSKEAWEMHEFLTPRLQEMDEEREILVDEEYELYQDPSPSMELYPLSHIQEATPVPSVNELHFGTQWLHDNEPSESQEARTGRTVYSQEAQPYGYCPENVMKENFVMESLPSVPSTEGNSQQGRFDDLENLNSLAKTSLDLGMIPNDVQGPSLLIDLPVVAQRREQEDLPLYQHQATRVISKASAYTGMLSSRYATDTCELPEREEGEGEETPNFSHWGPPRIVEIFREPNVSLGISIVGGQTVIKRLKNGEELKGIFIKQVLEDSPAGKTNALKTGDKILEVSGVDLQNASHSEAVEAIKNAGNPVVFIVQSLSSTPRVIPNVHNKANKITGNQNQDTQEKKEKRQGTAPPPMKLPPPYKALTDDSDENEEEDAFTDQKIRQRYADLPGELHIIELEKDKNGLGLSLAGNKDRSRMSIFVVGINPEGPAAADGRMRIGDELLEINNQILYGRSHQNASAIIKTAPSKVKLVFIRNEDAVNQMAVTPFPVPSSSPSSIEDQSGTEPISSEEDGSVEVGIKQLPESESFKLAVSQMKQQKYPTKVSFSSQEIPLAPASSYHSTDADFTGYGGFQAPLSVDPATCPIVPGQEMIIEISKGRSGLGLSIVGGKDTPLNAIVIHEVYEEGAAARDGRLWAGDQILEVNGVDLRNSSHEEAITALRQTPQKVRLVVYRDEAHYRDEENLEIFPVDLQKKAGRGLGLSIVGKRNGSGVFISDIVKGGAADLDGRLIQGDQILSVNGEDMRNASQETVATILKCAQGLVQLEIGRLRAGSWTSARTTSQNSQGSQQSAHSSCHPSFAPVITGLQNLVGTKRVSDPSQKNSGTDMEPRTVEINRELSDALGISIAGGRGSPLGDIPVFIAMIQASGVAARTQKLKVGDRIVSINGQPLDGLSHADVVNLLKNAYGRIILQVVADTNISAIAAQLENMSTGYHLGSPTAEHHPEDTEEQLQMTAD

Results are given in words; binding and its absence hold for the method and conditions named. In cells and extracts the contact can be indirect. Some entries that bind do so weakly or less than the wild type. For part of these data: Where a sequence is shown, tags or fusion partners need not be part of it.

The target in assay [1] is T1, Amot-p130 phosphorylated at S176 (mouse (by the paper's numbering: Ser176 in mouse, Ser175 in human)) (UniProt Q8VHG2).
T1 sequence (chain, phosphoserine at 176): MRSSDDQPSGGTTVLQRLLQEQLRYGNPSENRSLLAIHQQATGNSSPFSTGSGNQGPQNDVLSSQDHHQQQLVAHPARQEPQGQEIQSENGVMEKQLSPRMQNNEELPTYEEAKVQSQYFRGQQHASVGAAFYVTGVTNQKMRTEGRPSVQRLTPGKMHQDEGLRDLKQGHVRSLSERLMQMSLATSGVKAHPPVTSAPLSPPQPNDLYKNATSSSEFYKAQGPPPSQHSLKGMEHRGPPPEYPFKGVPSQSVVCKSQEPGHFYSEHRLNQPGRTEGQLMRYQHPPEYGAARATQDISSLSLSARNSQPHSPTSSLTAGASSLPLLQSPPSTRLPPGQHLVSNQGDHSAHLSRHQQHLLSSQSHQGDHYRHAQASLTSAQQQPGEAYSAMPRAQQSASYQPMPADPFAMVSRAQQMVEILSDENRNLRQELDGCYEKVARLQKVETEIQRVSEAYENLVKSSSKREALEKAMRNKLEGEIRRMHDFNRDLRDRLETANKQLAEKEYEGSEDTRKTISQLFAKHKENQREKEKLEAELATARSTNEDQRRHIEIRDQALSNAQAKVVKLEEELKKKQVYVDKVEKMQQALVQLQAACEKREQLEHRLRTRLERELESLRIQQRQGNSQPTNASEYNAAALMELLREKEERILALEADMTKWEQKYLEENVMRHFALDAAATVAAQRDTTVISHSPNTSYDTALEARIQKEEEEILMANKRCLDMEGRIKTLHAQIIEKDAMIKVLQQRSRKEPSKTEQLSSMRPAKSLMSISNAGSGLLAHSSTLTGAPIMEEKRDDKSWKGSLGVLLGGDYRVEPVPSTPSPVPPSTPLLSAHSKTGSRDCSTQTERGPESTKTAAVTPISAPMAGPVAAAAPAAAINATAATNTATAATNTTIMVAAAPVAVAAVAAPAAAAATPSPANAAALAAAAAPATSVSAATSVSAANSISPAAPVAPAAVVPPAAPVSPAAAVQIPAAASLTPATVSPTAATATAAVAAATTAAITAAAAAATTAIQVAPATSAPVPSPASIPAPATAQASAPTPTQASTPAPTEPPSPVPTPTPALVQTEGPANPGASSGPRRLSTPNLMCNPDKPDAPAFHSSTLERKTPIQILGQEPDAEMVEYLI
Put plainly: co-IP; HEK293-shAmot cells transfected with Amot-p130; IPs with antibodies to phospho-Amot (Ser176), YAP or Merlin, immunoblot. (Immunoblotting shows a protein as a band on a membrane.)

In assay [2] the target is YAP (endogenous) (human (endogenous in HEK293)) (UniProt P46937). The description is as above.
The target in assay [3] is Merlin (endogenous) (human (endogenous in HEK293)) (UniProt P35240). The description is as above.
For assay [4], the target named is Flag-tagged Patj (UniProt Q8NI35). As to the kind of experiment: co-IP; HEK293-shAmot cells co-transfected with an Amot-p130 allele (WT, S176A, S176E or PY motif mutants) and tagged partners; total RIPA lysate, IP with tag or protein antibodies overnight, immunoblot.
In assay [5] the target is T2, Flag-Pals1 (UniProt Q8N3R9).
T2 sequence: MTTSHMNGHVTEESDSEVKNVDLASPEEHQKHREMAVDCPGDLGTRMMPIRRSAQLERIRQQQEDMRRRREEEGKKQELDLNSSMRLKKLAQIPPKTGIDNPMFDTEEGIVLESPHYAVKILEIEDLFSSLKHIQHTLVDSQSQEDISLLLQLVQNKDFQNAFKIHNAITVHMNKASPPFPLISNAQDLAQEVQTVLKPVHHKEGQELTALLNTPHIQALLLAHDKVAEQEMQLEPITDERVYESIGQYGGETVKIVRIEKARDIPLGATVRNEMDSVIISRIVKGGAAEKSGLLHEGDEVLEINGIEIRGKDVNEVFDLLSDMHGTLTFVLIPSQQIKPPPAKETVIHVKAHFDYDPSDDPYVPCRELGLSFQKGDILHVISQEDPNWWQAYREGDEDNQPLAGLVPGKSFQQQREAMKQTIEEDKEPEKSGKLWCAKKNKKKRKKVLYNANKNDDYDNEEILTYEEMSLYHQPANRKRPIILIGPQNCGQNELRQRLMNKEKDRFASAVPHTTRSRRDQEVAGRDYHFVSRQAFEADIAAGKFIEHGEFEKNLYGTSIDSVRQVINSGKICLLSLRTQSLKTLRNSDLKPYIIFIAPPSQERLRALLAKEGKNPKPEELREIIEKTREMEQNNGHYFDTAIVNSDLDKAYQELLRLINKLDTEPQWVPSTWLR
Described as above.

As to “Merlin (endogenous) (from UniProt P35240 1-595)”, in assay [1], the binding entry is listed as “binds”.
With “YAP (endogenous) (from UniProt P46937 1-504)”, in assay [1], the binding entry is given as “binds”.

B1: Amot-p130 phosphorylated at S176 (protein, UniProt Q8VHG2 1-1126)
chain: MRSSDDQPSGGTTVLQRLLQEQLRYGNPSENRSLLAIHQQATGNSSPFSTGSGNQGPQNDVLSSQDHHQQQLVAHPARQEPQGQEIQSENGVMEKQLSPRMQNNEELPTYEEAKVQSQYFRGQQHASVGAAFYVTGVTNQKMRTEGRPSVQRLTPGKMHQDEGLRDLKQGHVRSLSERLMQMSLATSGVKAHPPVTSAPLSPPQPNDLYKNATSSSEFYKAQGPPPSQHSLKGMEHRGPPPEYPFKGVPSQSVVCKSQEPGHFYSEHRLNQPGRTEGQLMRYQHPPEYGAARATQDISSLSLSARNSQPHSPTSSLTAGASSLPLLQSPPSTRLPPGQHLVSNQGDHSAHLSRHQQHLLSSQSHQGDHYRHAQASLTSAQQQPGEAYSAMPRAQQSASYQPMPADPFAMVSRAQQMVEILSDENRNLRQELDGCYEKVARLQKVETEIQRVSEAYENLVKSSSKREALEKAMRNKLEGEIRRMHDFNRDLRDRLETANKQLAEKEYEGSEDTRKTISQLFAKHKENQREKEKLEAELATARSTNEDQRRHIEIRDQALSNAQAKVVKLEEELKKKQVYVDKVEKMQQALVQLQAACEKREQLEHRLRTRLERELESLRIQQRQGNSQPTNASEYNAAALMELLREKEERILALEADMTKWEQKYLEENVMRHFALDAAATVAAQRDTTVISHSPNTSYDTALEARIQKEEEEILMANKRCLDMEGRIKTLHAQIIEKDAMIKVLQQRSRKEPSKTEQLSSMRPAKSLMSISNAGSGLLAHSSTLTGAPIMEEKRDDKSWKGSLGVLLGGDYRVEPVPSTPSPVPPSTPLLSAHSKTGSRDCSTQTERGPESTKTAAVTPISAPMAGPVAAAAPAAAINATAATNTATAATNTTIMVAAAPVAVAAVAAPAAAAATPSPANAAALAAAAAPATSVSAATSVSAANSISPAAPVAPAAVVPPAAPVSPAAAVQIPAAASLTPATVSPTAATATAAVAAATTAAITAAAAAATTAIQVAPATSAPVPSPASIPAPATAQASAPTPTQASTPAPTEPPSPVPTPTPALVQTEGPANPGASSGPRRLSTPNLMCNPDKPDAPAFHSSTLERKTPIQILGQEPDAEMVEYLI
modifications: phosphoserine at 176
Take B1: the binding entry in assay [2] and in assay [3] was “binds” each time.

B2: HA-Amot-p130^S176E (protein, UniProt Q8VHG2 1-1126)
chain: MRSSDDQPSGGTTVLQRLLQEQLRYGNPSENRSLLAIHQQATGNSSPFSTGSGNQGPQNDVLSSQDHHQQQLVAHPARQEPQGQEIQSENGVMEKQLSPRMQNNEELPTYEEAKVQSQYFRGQQHASVGAAFYVTGVTNQKMRTEGRPSVQRLTPGKMHQDEGLRDLKQGHVRSLEERLMQMSLATSGVKAHPPVTSAPLSPPQPNDLYKNATSSSEFYKAQGPPPSQHSLKGMEHRGPPPEYPFKGVPSQSVVCKSQEPGHFYSEHRLNQPGRTEGQLMRYQHPPEYGAARATQDISSLSLSARNSQPHSPTSSLTAGASSLPLLQSPPSTRLPPGQHLVSNQGDHSAHLSRHQQHLLSSQSHQGDHYRHAQASLTSAQQQPGEAYSAMPRAQQSASYQPMPADPFAMVSRAQQMVEILSDENRNLRQELDGCYEKVARLQKVETEIQRVSEAYENLVKSSSKREALEKAMRNKLEGEIRRMHDFNRDLRDRLETANKQLAEKEYEGSEDTRKTISQLFAKHKENQREKEKLEAELATARSTNEDQRRHIEIRDQALSNAQAKVVKLEEELKKKQVYVDKVEKMQQALVQLQAACEKREQLEHRLRTRLERELESLRIQQRQGNSQPTNASEYNAAALMELLREKEERILALEADMTKWEQKYLEENVMRHFALDAAATVAAQRDTTVISHSPNTSYDTALEARIQKEEEEILMANKRCLDMEGRIKTLHAQIIEKDAMIKVLQQRSRKEPSKTEQLSSMRPAKSLMSISNAGSGLLAHSSTLTGAPIMEEKRDDKSWKGSLGVLLGGDYRVEPVPSTPSPVPPSTPLLSAHSKTGSRDCSTQTERGPESTKTAAVTPISAPMAGPVAAAAPAAAINATAATNTATAATNTTIMVAAAPVAVAAVAAPAAAAATPSPANAAALAAAAAPATSVSAATSVSAANSISPAAPVAPAAVVPPAAPVSPAAAVQIPAAASLTPATVSPTAATATAAVAAATTAAITAAAAAATTAIQVAPATSAPVPSPASIPAPATAQASAPTPTQASTPAPTEPPSPVPTPTPALVQTEGPANPGASSGPRRLSTPNLMCNPDKPDAPAFHSSTLERKTPIQILGQEPDAEMVEYLI
For B2, the binding result in assay [4] and in assay [5] was “binds” in each case.
